# Laboratory results from patent US20170354638A1, “BIXA ORELLANA COMPOSITION FOR THE TREATMENT MACULAR DEGENERATION” (BIOPHYTIS, priority 2011, published 2017).
# For at least one compound, name, drawing or mass did not settle the structure.
# System: primary cultures of adult porcine RPE cells
# Test: RPE cellular model of phototoxicity induced by A2E treatment followed by blue radiation illumination; cell survival
# Assay type: cell-based
# Description: Given the very probable role of this mechanism in the development of AMD, the inventors used an in vitro cellular model of induced phototoxicity by the association of a treatment with A2E and illumination by blue light on RPE primary cell cultures wherein cell survival was measured. This model was developed by the Institute of Vision and allows for screening molecules aimed to discover new candidates for the treatment of dry AMD.
# To test the photoprotective effect of the test substances, the inventors used a cellular model of induced phototoxicity by treatment with A2E followed by illumination with blue radiation. This model was produced from primary cultures of adult porcine RPE cells. Cell survival was determined by the ratio between the number of living cells and the total number of cells (alive+dead, respectively quantified using specific staining). Image acquisition was performed using a fluorescence microscope controlled by Metamorph software and quantifications were made by processing images acquired by a program dedicated quantification. The experiments were performed in 96-well microplates in quadruplicate and the experiment was repeated at least four times. Cells were treated for 48 hours with these compounds, the last 24 hours in the presence of A2E before induction of phototoxicity. Three concentrations (0.1, 1 and 10 μM) were tested for each compound. […]
structure (smiles),measurement,setting,value
Oc1cc(O)c2cc(O)c(-c3ccc(O)c(O)c3)[o+]c2c1 [Cyanidin],protection against phototoxicity (in words),20 μM,almost complete protection
same,protective effect (cell survival vs control without A2E),"concentrations of 0.1 and 1 μM, 48 h treatment, last 24 h with A2E, then blue light",did not show a protective effect
